From publication PMC4698733
Changes are numbered by the printed parent chain. Names and notes keep the numbering of the source. Results are given in words; binding and its absence hold for the method and conditions named. Some binding calls cover weakened binding; strength is not graded here. Values belong to the binder of their own block, whether it stands above or below them.

Sequences of proteins named here, by UniProt entry; tags and fusion partners are left off.
UniProt Q9DAK2: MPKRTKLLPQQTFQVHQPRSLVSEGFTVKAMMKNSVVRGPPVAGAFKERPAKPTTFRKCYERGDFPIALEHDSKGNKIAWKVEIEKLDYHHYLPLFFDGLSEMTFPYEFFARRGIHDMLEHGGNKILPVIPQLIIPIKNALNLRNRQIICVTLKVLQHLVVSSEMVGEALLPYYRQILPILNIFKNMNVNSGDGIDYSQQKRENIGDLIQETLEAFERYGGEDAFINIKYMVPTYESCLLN

Assays:
[1] = biological target: PACRG with hexahistidine tag, co-expressed with MEIG1 from PACRG/MEIG1/pCDFDuet-1 (mouse) (UniProt Q9DAK2); test: SEC; His-tagged PACRG and MEIG1 co-expressed in E. coli Rosetta II (DE3) from the dual plasmid; Nickel affinity, then Superdex 75 26/60 gel filtration twice; fractions analysed by Western blot
[2] = biological target: MEIG1 W50A, purified (mouse) (UniProt Q61845); test: SEC; mutant MEIG1 proteins that affect binding to PACRG; elution profiles compared with wild type (Supplemental Fig. 3C); both purified
[3] = biological target: Mouse meiosis expressed gene 1 protein (MEIG1), wild type, purified (mouse) (UniProt Q61845); test: NMR linewidths (2D 15N-HSQC); purified labelled MEIG1, 0.5-1.0 mM, 10 mM NaPO4 pH 6.5, 1 mM dithiothreitol; narrow, sharp and well dispersed resonances; both purified
[4] = biological target: Mouse meiosis expressed gene 1 protein (MEIG1), wild type, purified (mouse) (UniProt Q61845); test: SEC; purified MEIG1 on a Superdex 75 26/60 gel filtration column (GE Healthcare); single peak at 233 mL, apparent molecular weight ~9 kDa against expected 11 kDa; both purified
[5] = biological target: MEIG1 Y68A, purified (mouse) (UniProt Q61845); test: SEC; mutant MEIG1 proteins that affect binding to PACRG; elution profiles compared with wild type (Supplemental Fig. 3C); both purified
[6] = biological target: MEIG1 K57E, purified (mouse) (UniProt Q61845); test: as above
[7] = biological target: MEIG1 F66A, purified (mouse) (UniProt Q61845); test: as above

- binding [5]: no binding
B4: MEIG1 Y68A, purified (protein, UniProt Q61845 1-88)
chain: MATSDVKPKSISRAKKWSEEIENLYRFQQAGYRDEIEYKQVKQVAMVDRWPETGYVKKLQRRDNTFFAYNKERECEDKEVHKVKVYVY

- binding [6]: no binding
B5: MEIG1 K57E, purified (protein, UniProt Q61845 1-88)
chain: B4 chain with K57E, A68Y

Continued, binder first:

B1: MEIG1 wild type, co-expressed with PACRG from PACRG/MEIG1/pCDFDuet-1 (protein, UniProt Q61845 1-88)
chain: B4 chain with A68Y
- binding [1]: binds

B2: MEIG1 W50A, purified (protein, UniProt Q61845 1-88)
chain: B4 chain with W50A, A68Y
- binding [2]: no binding

B3: Mouse meiosis expressed gene 1 protein (MEIG1), wild type, purified (protein, UniProt Q61845 1-88)
chain: B4 chain with A68Y
- binding [3]: no binding (tested: 0.5–1.0 mM)
- binding [4]: no binding

B6: MEIG1 F66A, purified (protein, UniProt Q61845 1-88)
chain: B4 chain with F66A, A68Y
- binding [7]: no binding
